These are yes or no findings as the source states them, for the method shown. In cells and extracts the contact can be indirect. Some binding calls cover weakened binding; strength is not graded here.
Target: FLAG-HA-tagged wild type 53BP1 (TP53-binding protein 1) (UniProt Q12888)
Assay: co-IP; FLAG-HA-53BP1 immuno-complexes on anti-FLAG M2 magnetic beads from HEK 293T whole cell extracts 48 h after transfection, untreated or irradiated (10 Gy, 1 h); bound at 150 mM KCl, washed at 100 mM KCl, eluted with 3x FLAG peptide; blotted for DYNLL1

Sequences of proteins named here, by UniProt entry; tags and fusion partners are left off.
UniProt Q12888: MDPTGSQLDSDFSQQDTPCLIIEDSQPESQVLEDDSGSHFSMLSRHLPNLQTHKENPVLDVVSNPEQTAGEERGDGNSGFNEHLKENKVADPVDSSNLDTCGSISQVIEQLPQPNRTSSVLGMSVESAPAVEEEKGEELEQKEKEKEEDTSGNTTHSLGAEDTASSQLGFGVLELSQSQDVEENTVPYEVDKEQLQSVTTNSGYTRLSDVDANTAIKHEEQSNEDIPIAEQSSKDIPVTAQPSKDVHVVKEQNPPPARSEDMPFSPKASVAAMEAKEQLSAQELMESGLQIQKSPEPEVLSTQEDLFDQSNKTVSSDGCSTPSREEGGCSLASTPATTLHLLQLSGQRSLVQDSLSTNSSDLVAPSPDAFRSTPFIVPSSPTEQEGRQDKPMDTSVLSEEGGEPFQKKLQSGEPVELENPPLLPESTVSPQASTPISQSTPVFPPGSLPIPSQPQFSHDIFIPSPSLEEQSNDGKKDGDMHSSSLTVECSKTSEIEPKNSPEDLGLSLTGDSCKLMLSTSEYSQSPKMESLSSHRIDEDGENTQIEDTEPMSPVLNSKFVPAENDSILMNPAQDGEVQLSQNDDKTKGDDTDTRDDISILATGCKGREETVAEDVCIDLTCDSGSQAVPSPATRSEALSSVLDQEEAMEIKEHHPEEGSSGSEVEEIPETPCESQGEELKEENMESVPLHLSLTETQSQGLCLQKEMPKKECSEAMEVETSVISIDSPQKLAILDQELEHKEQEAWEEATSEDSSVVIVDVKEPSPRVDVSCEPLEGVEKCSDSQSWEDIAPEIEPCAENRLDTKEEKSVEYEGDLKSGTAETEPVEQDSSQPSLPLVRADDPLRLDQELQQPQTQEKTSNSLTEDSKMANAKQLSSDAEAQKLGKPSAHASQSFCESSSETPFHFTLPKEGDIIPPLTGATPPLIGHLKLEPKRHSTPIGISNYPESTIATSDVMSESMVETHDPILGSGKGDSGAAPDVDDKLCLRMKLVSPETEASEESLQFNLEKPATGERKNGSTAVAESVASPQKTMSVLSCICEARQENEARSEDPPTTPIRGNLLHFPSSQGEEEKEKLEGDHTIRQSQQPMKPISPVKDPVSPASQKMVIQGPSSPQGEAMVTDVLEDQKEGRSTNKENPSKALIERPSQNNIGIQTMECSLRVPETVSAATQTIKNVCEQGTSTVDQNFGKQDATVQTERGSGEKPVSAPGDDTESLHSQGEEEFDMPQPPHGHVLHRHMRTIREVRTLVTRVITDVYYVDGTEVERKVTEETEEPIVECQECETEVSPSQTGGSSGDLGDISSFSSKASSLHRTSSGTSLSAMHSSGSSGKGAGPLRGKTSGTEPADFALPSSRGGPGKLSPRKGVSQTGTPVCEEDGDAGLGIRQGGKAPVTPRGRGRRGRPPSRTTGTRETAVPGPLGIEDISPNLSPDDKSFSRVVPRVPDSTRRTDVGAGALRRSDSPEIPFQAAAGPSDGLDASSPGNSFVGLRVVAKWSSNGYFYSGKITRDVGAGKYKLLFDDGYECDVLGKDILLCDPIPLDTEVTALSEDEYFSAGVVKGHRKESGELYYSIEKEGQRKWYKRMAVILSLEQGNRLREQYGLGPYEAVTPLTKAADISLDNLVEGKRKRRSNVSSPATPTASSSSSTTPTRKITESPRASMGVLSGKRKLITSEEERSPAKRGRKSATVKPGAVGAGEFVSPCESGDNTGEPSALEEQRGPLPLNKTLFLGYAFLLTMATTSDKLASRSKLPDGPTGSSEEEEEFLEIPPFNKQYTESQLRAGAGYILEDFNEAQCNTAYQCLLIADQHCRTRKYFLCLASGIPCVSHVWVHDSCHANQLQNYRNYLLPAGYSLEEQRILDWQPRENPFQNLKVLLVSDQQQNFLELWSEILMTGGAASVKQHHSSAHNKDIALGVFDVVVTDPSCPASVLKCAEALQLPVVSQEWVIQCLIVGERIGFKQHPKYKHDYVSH
UniProt P63167: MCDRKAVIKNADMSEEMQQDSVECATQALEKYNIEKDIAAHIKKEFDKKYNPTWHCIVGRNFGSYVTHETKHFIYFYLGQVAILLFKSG

Question: How did the binding turn out when “dynein light chain 1 (DYNLL1), endogenous (from UniProt P63167 1-89)” was run?
Answer: The binding was “binds”.

Source: paper PMC6297349
